Source: EP0081783B2 (Merck & Co., Inc., priority 1981, dated 1989)

Experiment: general procedure: Boc solid-phase peptide synthesis; BOC-Leu esterified to 2% cross-linked polystyrene-divinylbenzene; dicyclohexylcarbodiimide with 1-hydroxybenzotriazole hydrate
Conditions: for purity (crude or final not stated): late stage modification step, high performance liquid chromatography

| Substance | crude mass (whole synthesis, scale 6 mmol) | purity (crude or final not stated) |
| --- | --- | --- |
| Isobutyryi-L-histidyl-L-prolyl-L-phenylalanyl-L-histidyl-(3S,4S)-statyl-L-leucine methyl ester | 1.4 g |  |
| Isobutyryl-L-hystidyl-I-prolyl-L-phenylalanyl-L-histidyl-(3S,4S)-statyl-L-leucine hydrazide |  | over 99% |
| N-isobutyryl-L-histidyl-L-prolyl-L-phenylalanyl-L-histidyl-(3S,4S)-statyl-L-leucylbenzylamide |  | 93.1% |
